Assay results: paper PMC5017145

Chains of the proteins cited; added tags and fusions are not shown.
UniProt P30153: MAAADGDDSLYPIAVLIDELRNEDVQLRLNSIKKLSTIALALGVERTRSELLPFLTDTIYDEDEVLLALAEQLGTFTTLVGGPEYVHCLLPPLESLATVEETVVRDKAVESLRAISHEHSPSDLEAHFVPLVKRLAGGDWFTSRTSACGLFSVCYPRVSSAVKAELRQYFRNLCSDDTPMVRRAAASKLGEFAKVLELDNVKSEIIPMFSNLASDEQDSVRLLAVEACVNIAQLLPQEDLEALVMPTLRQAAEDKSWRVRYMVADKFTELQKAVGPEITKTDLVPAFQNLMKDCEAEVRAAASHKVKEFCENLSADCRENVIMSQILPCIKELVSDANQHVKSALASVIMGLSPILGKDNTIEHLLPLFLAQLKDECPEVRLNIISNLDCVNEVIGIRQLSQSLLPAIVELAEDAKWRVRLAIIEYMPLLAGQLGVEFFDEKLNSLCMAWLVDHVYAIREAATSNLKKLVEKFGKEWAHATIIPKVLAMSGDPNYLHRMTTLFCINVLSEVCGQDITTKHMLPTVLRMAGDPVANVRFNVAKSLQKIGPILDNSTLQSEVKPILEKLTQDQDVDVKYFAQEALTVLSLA
UniProt P62820: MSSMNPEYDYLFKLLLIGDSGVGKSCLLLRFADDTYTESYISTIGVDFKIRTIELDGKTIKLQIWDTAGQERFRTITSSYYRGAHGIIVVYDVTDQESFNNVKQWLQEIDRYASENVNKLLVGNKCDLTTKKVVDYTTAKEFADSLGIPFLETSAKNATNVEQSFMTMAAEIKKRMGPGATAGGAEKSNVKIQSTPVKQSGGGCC
UniProt P61019: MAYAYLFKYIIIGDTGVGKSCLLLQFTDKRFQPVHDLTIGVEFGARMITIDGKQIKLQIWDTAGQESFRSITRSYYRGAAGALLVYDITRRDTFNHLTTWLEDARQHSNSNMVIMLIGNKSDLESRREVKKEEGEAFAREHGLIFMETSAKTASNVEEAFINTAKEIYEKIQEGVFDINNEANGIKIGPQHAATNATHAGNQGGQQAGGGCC

Molecular target: PPP2R1A, SF-TAP tagged (PP2A scaffold subunit) (UniProt P30153)
Experiment: affinity purification with mass spectrometry; SF-TAP tagged PP2A subunits transiently expressed in HeLa (SF-TAP alone as control); one step Strep-Tactin-Superflow purification; lysis buffer 150 mM NaCl, 50 mM Tris-HCl, 1% Nonidet P-40, 0.25% sodium deoxycholate; SILAC

How did the binding turn out when “RAB1A, endogenous (from UniProt P62820 1-205)” was run?
Its binding is “binds”.

How did the binding turn out when “RAB2A, endogenous (from UniProt P61019 1-212)” was run?
The binding was “binds”.

Results are given in words; binding and its absence hold for the method and conditions named. Binding seen in cells or lysates may run through a third protein. These calls come from enrichment with a bait or labelling near it, and not all partners need be listed.
